The test system of series [1] is WPMY-1 prostate stromal cells. The series is described as follows: Cytotoxicity, WPMY-1 prostate stromal cells. The series is classed as cell-based. The conditions noted are these: Homo sapiens.
The subject of the next series is 3T3 cells. The series is described as follows: Cytotoxicity, 3T3 mouse embryonic fibroblast cells. The series is classed as cell-based. The conditions noted are these: NIH3T3.
In series [2] the test system is 22Rv1 prostate cancer cells. The series is described as follows: Cytotoxicity MTS assay, 22Rv1. The conditions noted are these: Homo sapiens. (Formazan colour is commonly taken as a measure of viable cells.)
For series [3] the following is noted: female, in vivo, 1 mg/kg.

In brackets after ≈: the same amount, converted by molar mass. Like-named read-outs stand apart in the source and are kept apart here.

The IC50 is the concentration needed to halve the response being measured. For orientation: Cmax means the peak of the concentration-time curve.

As for `CNC(=O)c1ccc(N2C(=S)N(c3ccc(C#N)c(C(F)(F)F)c3)C(=O)C2(C)C)cc1F` [Enzalutamide, enzalutamide, reference compound], the IC50 in series [1] is 96.9 µg/mL (≈ 209 µM); in the series on 3T3 cells, 70.8 µg/mL (≈ 152 µM); in series [2] (22Rv1, 48 h, read-out: 22Rv1 IC50) it was 21 µg/mL (≈ 45.2 µM); in series [2] (22Rv1, 72 h, read-out: 22Rv1 IC50 after 72 hour treatment), 21 µg/mL (≈ 45.2 µM).

In series [3], `CCCCCC(=O)c1c(O)nc(OC)c(OC)c1O` [Compound 16c, 1-(2,4-dihydroxy-5,6-dimethoxypyridin-3-yl)hexan-1-one] came in with a Cmax of 76.70 ng/mL.
